Source: patent publication US11911387B2, “Vasoprotective and cardioprotective antidiabetic therapy” (Boehringer Ingelheim International GmbH, priority 2010, dated 2024)
For at least one compound, name, drawing or mass did not settle the structure.

Legend:
[1] = tested on: hydrogen peroxide/peroxidase system; test: Direct antioxidant effect: hydrogen peroxide/peroxidase mediated 1-electron-oxidation; format: biochemical
[2] = tested on: isolated aortic ring segments; test: Direct vasodilatory effects, isometric tension recording in isolated aortic ring segments; design: species or system rats; settings: cumulative concentrations 1 nM to 32 or 100 μM; versus DMSO
Method: FIGS. 9A and 9B show direct vasodilatory effects of gliptins. […] The data are mean±SEM of 12 (FIG. 9A) or 4 (FIG. 9B) aortic rings from 10 rats in total: p<0.05 vs. DMSO (solvent control); ^#p<0.05 vs. sita-/vildagliptin, and ^§, p<0.05 vs. saxa-/alogliptin.
Direct vasodilatory effects of gliptins are measured by the isometric tension technique in isolated aortic ring segments. […] In addition reactive oxygen and nitrogen species (RONS) formation is determined in isolated cardiac mitochondria and LPS or PDBu-triggered oxidative burst in whole blood.

In the case of `N#C[C@@H]1C[C@@H]2C[C@@H]2N1C(=O)[C@@H](N)C12CC3CC(CC(O)(C3)C1)C2` [saxagliptin, reference compound], the “interference with 1-electron-oxidations by the hydrogen peroxide/peroxidase system” value [1] is reported as “except saxagliptin” and the “direct vasodilatory effect (induction of vasodilation), ranking” value [2] is reported as “not more efficient in the induction of vasodilation than the solvent alone control”.
